Source: the supplement of paper PMC8497498
± gives the standard deviation of the averaged measurements. This is one part of the list. The data scatter; read single values as rough.

Assays:
Settings in all cases: 10 µM
[1] = test system: Plasmodium vivax liver stage (primary human hepatocyte culture); assay: hypnozoite quantity inhibition (% inhibition); higher = more active against hypnozoites
[2] = test system: Plasmodium vivax liver stage (primary human hepatocyte culture); assay: schizont net growth area inhibition (% inhibition); higher = more active against liver schizonts
[3] = test system: primary human hepatocytes; assay: hepatic nuclei reduction relative to DMSO (100 - % of negative control); higher = more toxic to hepatocytes
[4] = assay mode: Prophylactic (treated before or shortly after infection), fixed day 6 post-infection
[5] = assay mode: Radical Cure (treated from day 5 post-infection for 3 days), fixed day 8 post-infection

SMILES | hypnozoite quantity inhibition [1, 4] | hypnozoite quantity inhibition [1, 5] | schizont net growth area inhibition [2, 4] | schizont net growth area inhibition [2, 5] | hepatic nuclei reduction [3, 4] [%] | hepatic nuclei reduction [3, 5] [%]
O=C(COc1cccc(F)c1)Nc1nc(-c2ccccn2)cs1 | 41 | -54 | 27.5 | -103 | -2 | -8
Cc1cc(Cl)ccc1NC(=O)CCc1ccc(S(=O)(=O)NCC(C)C)cc1 | -51 | -24 | -74.1 | 26.4 | -8 | -5
Cc1nnc(NC(=O)c2cn(-c3ccccc3)nc2-c2ccccc2C)o1 | -68 | -25 | -20.7 | -35.2 | 5 | 8
O=C(NCC(c1ccsc1)N1CCCCCC1)c1ccc(C(F)(F)F)cc1 (stereo not given) | -27.2 | 12.8 | -17.3 | 3 | -3 | -8
CCOc1cc(Cl)c(C(C)NC(=O)c2ccccc2)cc1OCC (stereo not given) | 12 | 34.6 | 54.4 | -70.9 | 0 | -6
Brc1ccc(Nc2nc3ccccc3nc2Nc2ccc(Br)cc2)cc1 | 70.8 | 47.3 | 97.2 | 51.4 | -4 | -2
CCCCc1ccc(C(=O)Nc2nccc3ccccc23)nc1 | 5 | -4 | 65.5 | -65.7 | -11 | -3
CCc1ccc(Nc2cc(C)c3ccc(O)cc3n2)cc1 | -3.5 | 40.5 | -11.7 | 0.7 | -10 | 3
Nc1ncnc2c1ncn2[C@@H]1O[C@H](COS(=O)(=O)NC(=O)c2ccccc2O)[C@@H](O)[C@H]1O | 21 | 12 | -20.3 | 21.3 | 3 | -11
Cc1cc(Nc2ccc(S(F)(F)(F)(F)F)cc2)n2nc(C(C)(F)F)nc2n1 | -22 | 41.9 ± 31 | 81.6 | 67.9 ± 35 | -18 | -8.5 ± 7.8
Cc1cc(Cl)c(S(=O)(=O)N2CCCC2)cc1OCC(=O)NC1CCCCC1 | 27 | 22 | 27.4 | -17.3 | 2 | -4
CC(C)(C)C(=O)N(CCCCCCN1C[C@H](O)[C@@H](O)[C@H](O)[C@H]1CO)C1CCCCCC1 | 18 | 19 | -2.5 | 46.7 | 1 | -5
CCOc1cc(Br)c(C(C)NC(=O)c2cccc(OC)c2)cc1OCC (stereo not given) | -2 | 38.2 | 36.8 | -3.8 | 10 | 2
Cc1cccc(Cn2ccc(NC(=O)c3ccc4c(c3)OCO4)n2)c1 | 10 | -72 | 0 | -85 | 5 | -2
Cc1c(C)n(CC(O)CNC2CCCCC2C)c2ccccc12 (stereo not given) | -20.9 | -68.9 | 6 | -33.6 | 0 | -15
CS(=O)(=O)c1ccc(-c2cnc(N)c(-c3ccc(C(F)(F)F)nc3)c2)cc1 | 90 | -6 | 95.5 | 107 | -15 | -9
Oc1c(I)cc(I)c2cccnc12 | 56 | -10 | -18.3 | -43.7 | 10 | -5
Cc1ccc(-c2nc(CN(Cc3ccccn3)C(C)C)cs2)o1 | 24 | -4 | 9.3 | -125 | -13 | 9
COc1ccc(Nc2cc(C)nc(NCc3ccccc3)n2)cc1 | 0.9 | 42.7 | 12.5 | -12.9 | 6 | 1
COc1ccc(-c2cnc3cnc(-c4cccc(OC(C)C)c4)cn23)cc1 | -28 | 24 | -45.8 | 20.7 | -5 | 2

Of the compounds above, these contain bromine.
SMILES | hypnozoite quantity inhibition [1, 4] | hypnozoite quantity inhibition [1, 5] | schizont net growth area inhibition [2, 4] | schizont net growth area inhibition [2, 5] | hepatic nuclei reduction [3, 4] [%] | hepatic nuclei reduction [3, 5] [%]
Brc1ccc(Nc2nc3ccccc3nc2Nc2ccc(Br)cc2)cc1 | 70.8 | 47.3 | 97.2 | 51.4 | -4 | -2
CCOc1cc(Br)c(C(C)NC(=O)c2cccc(OC)c2)cc1OCC (stereo not given) | -2 | 38.2 | 36.8 | -3.8 | 10 | 2

Next part:

SMILES | hypnozoite quantity inhibition [1, 4] | hypnozoite quantity inhibition [1, 5] | schizont net growth area inhibition [2, 4] | schizont net growth area inhibition [2, 5] | hepatic nuclei reduction [3, 4] [%] | hepatic nuclei reduction [3, 5] [%]
CCc1cc(=O)n(C)c(SC(C)C(=O)Nc2ccc(F)cc2)n1 (stereo not given) | -24 | 57 | -1.3 | 63.5 | -8 | 7
CN1CCN(c2c3c(c(C#N)c4nc5ccccc5n24)CCC3)CC1 | -26.6 | 19.8 | 37.8 | -20.2 | -13 | -4
CN1C=C(c2ccc3ccccc3n2)C(c2c[nH]c3ccccc23)c2ccccc21 (stereo not given) | 19.5 | 31.3 | 22.6 | 46.5 | -2 | -3
Cc1cc(Nc2ccncc2)n2nc(C)c(-c3ccccc3Cl)c2n1 | 39 | 35 | -25.1 | -54.7 | -5 | 1
O=C(Nc1ccc(-c2nc3cc(NC(=O)c4ccc(Cl)cc4)ccc3[nH]2)cc1)c1ccc(Cl)cc1 | -11.7 | 42.7 | -54.4 | 37.1 | 4 | -1
O=C(Nc1ccc(-c2nc3ccccc3[nH]2)cc1)c1ccc(Cl)c(Cl)c1 | 7.6 | -63.4 | 49.3 | -188 | 1 | -6
Cc1cc(O)nc(-n2nc(C)cc2C)n1 | -76 | 9 | -21.5 | 14.8 | -8 | -1
CCOc1ccc2cc(-c3nn(C(C)(C)C)c(N)c3C(N)=O)cnc2c1 | 27 | -44 | 35 | -70.1 | 7 | -3
COc1ccc(-c2nnc3ccc(-c4cccc(C(C)C)c4)cn23)cc1OC | 41 | -12 | 25.8 | -21.8 | 3 | -10
CC(C)c1ncc(-c2ccncc2)c([C@H]2CC[C@H](CNC(=O)c3cccnc3)CC2)n1 | 8 | -7 | 30 | -125 | -3 | -1
CC(=O)N1CCc2cc3nc(C)cc(C)c3cc21 | -76 | -46 | -1.3 | -122 | -10 | -2
CC(C)(CN)c1nc(-c2ccc(Cl)c(O)c2)c(-c2ccnc(N)n2)[nH]1 | 40 | -58 | 50.8 | -17.8 | -11 | -1
O=C(Nc1nc(-c2ccccn2)cs1)C1CC1c1ccccc1F (stereo not given) | 31 | 22 | 49.5 | 7.6 | 0 | -8
CCCCCCCCCCCCCCCCOP(=O)([O-])OCC[N+](C)(C)C | -40 | 4 | -28.3 | 31.4 | -8 | 11
COc1cc(C2=NCCN2)cc2cc(-c3ccc(C4=NCCN4)cc3)oc12 | 46 | -10 | -28.2 | -27 | 1 | 2
Cc1ccc(-c2cc3c(SCC(=O)Nc4cc(C(F)(F)F)ccc4Cl)nccn3n2)cc1 | 5.7 | 67.3 | -36.9 | -59 | 5 | 0
Cc1cc(N2CCN(C3CCCC3)CC2)n2c(nc3ccccc32)c1C#N | 18.3 | 18.3 | -8.2 | 16.3 | 0 | -7
CCN(CC)S(=O)(=O)c1ccc(Cl)c(C(=O)Nc2ccc3nc(C)sc3c2)c1 | 34 | 32 | 57.5 | -116 | 1 | 6
COc1ccc(CN2CCCC(C(=O)c3ccc(C(F)(F)F)cc3)C2)c(O)c1 (stereo not given) | -32.2 | -33.5 | -11.3 | 20.2 | -3 | -5
CC[C@@H]([C@H](C)O)n1ncn(-c2ccc(N3CCN(c4ccc(OC[C@@H]5CO[C@@](Cn6cncn6)(c6ccc(F)cc6F)C5)cc4)CC3)cc2)c1=O | 10 | -18 | 28.9 | 28.4 | 4 | 3

SMILES | hypnozoite quantity inhibition [1, 4] | hypnozoite quantity inhibition [1, 5] | schizont net growth area inhibition [2, 4] | schizont net growth area inhibition [2, 5] | hepatic nuclei reduction [3, 4] [%] | hepatic nuclei reduction [3, 5] [%]
COc1cc(OC)cc(C(=O)NCC2Cc3cc(Cl)cc(-c4ccncc4)c3O2)c1 (stereo not given) | 41 | -7 | 73.1 | -30.4 | 0 | -10
COc1ccc2nc(C)cc(Nc3cccc(O)c3)c2c1 | 3.8 | 12.8 | -28.4 | 38.9 | -4 | -5
CCOC(=O)C1=C(C)N=c2sc(=Cc3ccccc3O)c(=O)n2C1c1ccc(OC)c2ccccc12 (stereo not given) | -172 | 47.3 | -147 | 1.2 | -15 | 5
Cc1cccc(-n2ncc3c(=O)[nH]c(-n4nc(C)cc4NC(=O)c4cc5ccccc5o4)nc32)c1 | 45.5 | 15.6 | 100 | 34 | 7 | -3
CC1(COc2ccc(N3CCC(Oc4ccc(OC(F)(F)F)cc4)CC3)cc2)Cn2cc([N+](=O)[O-])nc2O1 (stereo not given) | 7 | -51 | 7.4 | -173 | -13 | -8
CC(C)N=C(N)N=C(N)Nc1ccc(Cl)c(Cl)c1 | 14 | 47 | 57.8 | 72.8 | 6 | -6
COc1cc(Br)cc2cc(C(=O)Nc3cccc(C(F)(F)F)c3)c(=O)oc12 | 8 | -23 | -26 | -95.8 | 7 | 2
O=C(Nc1ccc2c(c1)B(O)OC2)c1ccccc1C(F)(F)F | 45 | -38 | 93.8 | -112 | 25 | -9
CC(C)n1nc(-c2cc3c(Cl)cccc3[nH]2)c2c(N)ncnc21 | -13 | -51 | 58.1 | 41 | 6 | 3
O=C(Nc1ccccc1O)c1ccc(Oc2cccc(C(=O)Nc3ccccc3O)c2)cc1 | -47.4 | 31.3 | -5.1 | -3 | 1 | -6
CCN(CC)CCCNc1ccnc2cc3ccccc3cc12 | -8 | 42.7 | -219 | 17.3 | -3 | -2
CC1CN(C(=O)c2sc3ccccc3c2Cl)CC(C)O1 (stereo not given) | -18.4 | 33.6 | -37 | 50.6 | -4 | -3
COc1ccc(-c2c(C)nn3c(N)c(C#N)cnc23)cc1OC | 104 | 31.9 | 95.4 | 99 | 2 | -9
COc1ccc2c(c1OC)C(=O)N1c3ccccc3N=C(c3ccc(C)cc3)CC21 (stereo not given) | 0 | -19.8 | 55.7 | 19.8 | -4 | -4
O=C(Nc1ccc(N2CCNCC2)nc1)c1oc(-c2ccccc2)nc1C(F)(F)F | -72 | -46 | -15.1 | -31.8 | -6 | -10
CC(C)(C)c1ccc(N[C@@H]2CCCC[C@H]2NC(=O)c2ccco2)cc1 | 8 | -2 | -2.4 | -59.2 | -5 | -7
CCCS(=O)(=O)N1CCC(CO)(Cc2ccccc2C(F)(F)F)CC1 | -17 | -29 | -23.8 | -18.5 | -9 | 0
CN1CCN(S(=O)(=O)c2ccc(-c3ccc4c(Nc5ccc6nn[nH]c6c5)ccnc4c3)cc2)CC1 | -4 | -2 | -9.2 | -34.3 | 1 | -6
CC[P](CC)(CC)=[Au][S][C@H]1O[C@@H](COC(C)=O)[C@H](OC(C)=O)[C@@H](OC(C)=O)[C@@H]1OC(C)=O | -7 | -51 | 7 | 42.9 | 3 | 4
COc1cccc(Nc2nc(N)c3ccccc3n2)c1 | 8.4 | 42.7 | -5.5 | -22 | 2 | -5
